Reference: article PMC8677719

What was measured:
Test in all cases: EMSA
[1] = tested on: FLAG-As-NF-kB2 (Acanthoeca spectabilis); conditions: EMSA: 10 mM HEPES pH 7.8, 50 mM KCl, 1 mM DTT, 1 mM EDTA, 4% glycerol, 40 ug/ml poly-dI-dC, 2X BSA, 50 ug 293T extract, 30 C 30 min; protein in a lysate after overexpression; protein details: FLAG; label: 32P
[2] = molecular target: T1, FLAG-Co-RHD (Capsaspora owczarzaki) (UniProt F1ARL5); conditions: EMSA: 10 mM HEPES pH 7.8, 50 mM KCl, 1 mM DTT, 1 mM EDTA, 4% glycerol, 40 ug/ml poly-dI-dC, 2X BSA, 50 ug 293T extract, 30 C 30 min; protein in a lysate after overexpression; protein details: FLAG (N-terminal); label: 32P
T1 sequence (looked up, limits assumed): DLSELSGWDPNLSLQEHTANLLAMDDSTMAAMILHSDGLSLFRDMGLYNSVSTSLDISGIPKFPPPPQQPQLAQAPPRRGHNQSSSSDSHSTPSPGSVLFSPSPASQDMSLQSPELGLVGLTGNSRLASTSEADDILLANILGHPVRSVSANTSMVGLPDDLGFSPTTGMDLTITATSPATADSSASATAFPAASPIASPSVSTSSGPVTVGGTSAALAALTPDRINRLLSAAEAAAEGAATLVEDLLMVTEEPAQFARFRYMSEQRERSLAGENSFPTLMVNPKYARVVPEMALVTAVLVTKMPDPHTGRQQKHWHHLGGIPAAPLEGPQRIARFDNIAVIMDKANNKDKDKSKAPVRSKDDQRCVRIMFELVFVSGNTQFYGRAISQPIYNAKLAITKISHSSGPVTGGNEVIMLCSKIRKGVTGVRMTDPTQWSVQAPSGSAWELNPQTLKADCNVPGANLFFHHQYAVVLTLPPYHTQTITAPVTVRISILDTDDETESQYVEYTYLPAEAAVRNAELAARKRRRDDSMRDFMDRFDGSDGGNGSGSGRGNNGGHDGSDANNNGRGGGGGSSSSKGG

[3] = molecular target: T2, FLAG-Co-NF-kB full-length (Capsaspora owczarzaki) (UniProt F1ARL5); conditions: EMSA: 10 mM HEPES pH 7.8, 50 mM KCl, 1 mM DTT, 1 mM EDTA, 4% glycerol, 40 ug/ml poly-dI-dC, 2X BSA, 50 ug 293T extract, 30 C 30 min; protein in a lysate after overexpression; protein details: FLAG (N-terminal); label: 32P
T2 sequence (looked up, limits assumed): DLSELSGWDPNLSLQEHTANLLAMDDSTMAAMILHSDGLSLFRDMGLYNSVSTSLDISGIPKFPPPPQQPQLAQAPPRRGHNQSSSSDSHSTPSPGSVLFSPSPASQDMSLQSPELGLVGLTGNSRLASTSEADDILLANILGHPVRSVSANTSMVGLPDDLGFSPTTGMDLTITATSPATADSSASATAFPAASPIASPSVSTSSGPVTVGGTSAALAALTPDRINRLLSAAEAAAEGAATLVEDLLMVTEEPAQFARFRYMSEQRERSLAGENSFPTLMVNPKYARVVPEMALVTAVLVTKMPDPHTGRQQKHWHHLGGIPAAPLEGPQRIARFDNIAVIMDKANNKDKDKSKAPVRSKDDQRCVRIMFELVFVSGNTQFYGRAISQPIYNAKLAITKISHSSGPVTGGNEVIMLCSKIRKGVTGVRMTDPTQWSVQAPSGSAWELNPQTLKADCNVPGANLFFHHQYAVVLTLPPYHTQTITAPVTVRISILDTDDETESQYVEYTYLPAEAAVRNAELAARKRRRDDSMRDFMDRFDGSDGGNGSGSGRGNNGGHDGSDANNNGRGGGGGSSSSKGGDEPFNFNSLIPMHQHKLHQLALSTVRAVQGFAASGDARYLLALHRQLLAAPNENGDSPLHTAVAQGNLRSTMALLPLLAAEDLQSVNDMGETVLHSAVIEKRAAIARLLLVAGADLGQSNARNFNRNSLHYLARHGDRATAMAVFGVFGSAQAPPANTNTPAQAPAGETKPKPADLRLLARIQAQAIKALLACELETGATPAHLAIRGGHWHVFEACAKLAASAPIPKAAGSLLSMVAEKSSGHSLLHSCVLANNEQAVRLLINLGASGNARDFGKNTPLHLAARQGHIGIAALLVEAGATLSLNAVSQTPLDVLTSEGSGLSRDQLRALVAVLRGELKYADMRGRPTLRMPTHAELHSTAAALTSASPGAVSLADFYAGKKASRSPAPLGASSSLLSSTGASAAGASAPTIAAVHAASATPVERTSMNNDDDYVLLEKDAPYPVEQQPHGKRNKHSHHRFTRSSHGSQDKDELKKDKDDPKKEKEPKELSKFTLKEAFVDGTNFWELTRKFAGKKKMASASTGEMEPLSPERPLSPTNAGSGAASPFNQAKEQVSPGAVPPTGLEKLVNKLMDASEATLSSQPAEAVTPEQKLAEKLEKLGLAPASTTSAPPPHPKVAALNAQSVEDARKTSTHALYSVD

[4] = tested on: FLAG-As-NF-kB3 (Acanthoeca spectabilis); conditions: EMSA: 10 mM HEPES pH 7.8, 50 mM KCl, 1 mM DTT, 1 mM EDTA, 4% glycerol, 40 ug/ml poly-dI-dC, 2X BSA, 50 ug 293T extract, 30 C 30 min; protein in a lysate after overexpression; protein details: FLAG; label: 32P
[5] = tested on: FLAG-Nv-NF-kB (Nematostella vectensis); conditions: EMSA: 10 mM HEPES pH 7.8, 50 mM KCl, 1 mM DTT, 1 mM EDTA, 4% glycerol, 40 ug/ml poly-dI-dC, 2X BSA, 50 ug 293T extract, 30 C 30 min; protein in a lysate after overexpression; protein details: FLAG; label: 32P
[6] = tested on: FLAG-As-NF-kB1 (Acanthoeca spectabilis); conditions: EMSA: 10 mM HEPES pH 7.8, 50 mM KCl, 1 mM DTT, 1 mM EDTA, 4% glycerol, 40 ug/ml poly-dI-dC, 2X BSA, 50 ug 293T extract, 30 C 30 min; protein in a lysate after overexpression; protein details: FLAG; label: 32P
[7] = molecular target: T3, FLAG-Co-Cterm (Capsaspora owczarzaki) (UniProt F1ARL5); conditions: EMSA: 10 mM HEPES pH 7.8, 50 mM KCl, 1 mM DTT, 1 mM EDTA, 4% glycerol, 40 ug/ml poly-dI-dC, 2X BSA, 50 ug 293T extract, 30 C 30 min; protein in a lysate after overexpression; protein details: FLAG (N-terminal); label: 32P
T3 sequence (looked up, limits assumed): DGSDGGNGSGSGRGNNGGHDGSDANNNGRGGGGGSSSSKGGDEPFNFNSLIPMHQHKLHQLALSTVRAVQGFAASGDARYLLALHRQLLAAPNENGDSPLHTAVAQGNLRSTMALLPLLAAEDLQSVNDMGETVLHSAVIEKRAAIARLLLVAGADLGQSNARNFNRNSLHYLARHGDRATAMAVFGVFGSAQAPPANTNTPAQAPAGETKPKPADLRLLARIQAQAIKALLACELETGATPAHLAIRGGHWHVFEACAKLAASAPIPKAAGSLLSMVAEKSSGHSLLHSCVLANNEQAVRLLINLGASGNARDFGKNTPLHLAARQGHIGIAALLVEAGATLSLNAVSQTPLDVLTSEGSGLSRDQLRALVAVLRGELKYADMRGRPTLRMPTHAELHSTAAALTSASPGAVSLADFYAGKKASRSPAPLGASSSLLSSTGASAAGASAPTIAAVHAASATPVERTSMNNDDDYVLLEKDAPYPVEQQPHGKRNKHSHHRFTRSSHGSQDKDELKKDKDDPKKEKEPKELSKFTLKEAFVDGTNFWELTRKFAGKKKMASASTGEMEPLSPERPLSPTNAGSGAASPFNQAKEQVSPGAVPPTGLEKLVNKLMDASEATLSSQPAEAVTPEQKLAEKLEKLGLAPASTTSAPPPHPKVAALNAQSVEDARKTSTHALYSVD

“TCGAGAGGTCGGGGAATTCCCCCCCCG / TCGACGGGGGGGGAATTCCCCGACCTC [kB-site EMSA probe]”: binds [1]; binds [2]; no binding [3]. “TCGAGAGGTCGGGGAATTCCCCCCCCG / TCGACGGGGGGGGAATTCCCCGACCTC [kB-site EMSA probe]”: binds [4]; binds [5]; binds more weakly [6]. “TCGAGAGGTCGGGGAATTCCCCCCCCG / TCGACGGGGGGGGAATTCCCCGACCTC [kB-site EMSA probe]”: no binding [7].

Results from cells or extracts need not show a direct contact. For some of these results: Negatives hold for the conditions tested. For some of these results: Tags and fusion partners may be left off the protein sequences shown. For some of these results: The exact form of at least one protein or probe is not confirmed. For some of these results: Weaker means in comparison with the reference protein, sequence or condition of that experiment.
